In US20170226133A1, “Gold (I)-Phosphine Compounds as Anti-Bacterial Agents” (Auspherix Limited, priority 2014, published 2017):

Assays:
[1] = tested on: human hepatocyte cell line (HepG2); experiment: HepG2 cell inhibition assay (CCK-8 cell viability); type: cell-based; conditions: for Therapeutic Index (HepG2)/E. coli: HepG2 TD50 divided by dose where 50% of E. coli growth is inhibited; for Therapeutic Index (HepG2)/S. aureus: HepG2 TD50 divided by dose where 50% of S. aureus growth is inhibited
Experimental: Cell counting kit-8 (Sigma, CCK-8) assays were performed to assess the effect of compounds on cell viability. The assay is based on the reduction of a water-soluble tetrazolium salt (WST-8) by cellular dehydrogenases to a formazan dye which can be detected spectroscopically. 96-well plates were seeded with the human hepatocyte cell line (HepG2) at approximately 8×10^3 cells per well in Minimum Essential Medium Eagle (EMEM) with Earle's salts and sodium bicarbonate supplemented with 10% heat-inactivated foetal bovine serum 2 mM glutamine and 1% non-essential amino acids (NEAA). The following day serial dilutions of compounds (dissolved and diluted in DMSO) were added to the cells in duplicates. Control included an ‘untreated’ control where cells were grown in the presence of 1% DMSO and a medium only control (plus 1% DMSO). After 24 hours CCK-8 reagent (10 μl) was added to each well and cell viability was assessed by measuring the absorbance at a wavelength of 450 nm after 2-3 h hours. Only living cells can reduce the tetrazolium salts into coloured formazan products. Results were expressed as 50% growth inhibition (TD50) values compared to ‘untreated’ control. The therapeutic index was calculated as the ratio of the dose that produces growth inhibition in 50% of HepG2 cells divided by the dose where 50% of S. aureus or E. coli growth is inhibited.

[2] = tested on: chinese hamster ovary cells (CHO); experiment: CHO toxicity assay (CCK-8 cell viability); type: cell-based; conditions: CHO TD50 divided by dose where 50% of S. aureus growth is inhibited
Experimental: Cell counting kit-8 (Sigma, CCK-8) assays were performed to assess the effect of compounds on cell viability. The assay is based on the reduction of a water-soluble tetrazolium salt (WST-8) by cellular dehydrogenases to a formazan dye which can be detected spectroscopically. 96-well plates were seeded with chinese hamster ovary cells (CHO) cells at 7×10^3 cells per well in Dulbecco's modified Eagle's medium nutrient mixture F-12 Ham (containing 15 mM HEPES, NaHCO3, pyridoxine and L-glutamine) supplemented with 10% fetal bovine serum (FBS). The following day serial dilutions of compounds (dissolved and diluted in DMSO) were added to the cells in duplicates. Control included an ‘untreated’ control where cells were grown in the presence of 1% DMSO and a medium only control (plus 1% DMSO). After 24 hours CCK-8 reagent (10 μl) was added to each well and cell viability was assessed by measuring the absorbance at a wavelength of 450 nm after 2.5-3 hours. Only living cells can reduce the tetrazolium salts into coloured formazan products. Results were expressed as 50% growth inhibition (TD50) values compared to ‘untreated’ control.
The therapeutic index was calculated as the ratio of the dose that produces growth inhibition in 50% of CHO cells divided by the dose where 50% of S. aureus growth is inhibited.

| Compound | Therapeutic Index (HepG2)/E. coli [1] | Therapeutic Index (HepG2)/S. aureus [1] | Therapeutic Index (CHO) [2] |
| --- | --- | --- | --- |
| C[P](C)(C)=[Au][S]c1nc2ccccc2[nH]1 [Compound 1] | 4 | 10 | 9.4 |
| COC(=O)[C@H](C[S][Au]=[P](C)(C)C)NC(C)=O [Compound 2] | 2.5 | 31 | 26 |
| C[P](C)(C)=[Au][S]c1nc2ncccc2o1 [Compound 3] | 8 | 10 | 9.4 |
| CC(=O)N[C@@H](C[S][Au]=[P](C)(C)C)C(N)=O [Compound 4] | 5 | 24 |  |
| C[P](C)(C)=[Au][S]c1nc2cccnc2[nH]1 [Compound 7] | 5 | 18 |  |
| CCOC(=O)[C@H](C[S][Au]=[P](C)(C)C)NC(C)=O [Compound 8] | 2 | 32 |  |
| C[P](C)(C)=[Au][S]c1ccccc1 [Compound 10] | 2 | >2.5 |  |
| C[P](C)(C)=[Au][S]c1ccccn1 [Compound 11] | 5.5 | >6 |  |
| C[P](C)(C)=[Au][S]c1ncccn1 [Compound 12] | 3 | >6 |  |
| CN1CCC([S][Au]=[P](C)(C)C)CC1 [Compound 13] | 4 | >19 |  |
| C[P](C)(C)=[Au][S]c1nc2ncccc2s1 [Compound 14] | 10 | >9 |  |
| C[P](C)(C)=[Au][S][C@H]1CC[C@H](O)CC1 [Compound 15] | 5 | >6 |  |
| C[P](C)(C)=[Au][S]C1CCOCC1 [Compound 16] | 2 | >6 |  |
| C[P](C)(C)=[Au][S]c1cccnc1 [Compound 19] | 4 | >4 |  |
